Results deposited as PubChem BioAssay AID652259 (Drosophila RNAi Screening Center, 2013)
The screen tested about 22,000 reagents; shown is an unselected part of those with a known target gene and a result. Of all reagents, 233 (1.1%) are marked active. 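Light values are raw, unnormalised plate reads; the ratio scores behind the reporter calls were not deposited.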 Names joined by + are all predicted targets of the reagent. The record does not give: the amount of reagent, the time to read-out, the dose of the treatment.

Purpose: 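Knock-downs that push a Wingless-driven reporter up or down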 (primary screen)
Cells: Drosophila clone 8 imaginal disc epithelial cells
Reagent: long dsRNA against Drosophila genes
Treatment: pathway stimulated by co-transfected Wingless expression plasmid
Measured: 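Firefly luciferase from a tcf-site Wingless reporter, measured alongside co-transfected Renilla luciferase that tracks transfection; pathway stimulated by a Wingless plasmid; the firefly-to-Renilla ratio is not deposited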
Reading the numbers: firefly reporter light: higher = more Wg reporter light, before normalisation; Renilla control light: higher = more transfected or surviving cells
Active means: 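a knock-down is a candidate when at least two out of four statistical tests show it departing from its plate mean; one test alone signals a weak candidate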
Meaning of the calls: active = candidate regulator (raises or lowers reporter); inactive = not a candidate

| firefly reporter light, replicate 1 | firefly reporter light, replicate 2 | Renilla control light, replicate 1 | Renilla control light, replicate 2 | Outcome | gene | DRSC id |
| --- | --- | --- | --- | --- | --- | --- |
| 1226 | 11920 | 1008 | 3581 | inactive | Lcp65Af | DRSC11213 |
| 19324 | – | 8112 | – | inactive | CG30156 | DRSC04959 |
| 10709 | – | 3642 | – | inactive | Uba3 | DRSC06377 |
| 7179 | – | 2501 | – | inactive | MED15 | DRSC00267 |
| 5883 | – | 3306 | – | inactive | CG6685 | DRSC10695 |
| 4.15e5 | 4.53e5 | 2.17e5 | 1.58e5 | inactive | BomS3 | DRSC21458 |
| 4.23e5 | 4.67e5 | 2.19e5 | 1.98e5 | inactive | CG6788 + CR32496 | DRSC22043 |
| 2784 | 7120 | 761 | 2772 | inactive | CG13690 | DRSC00359 |
| 3846 | – | 1522 | – | inactive | CG32017 | DRSC17183 |
| 4195 | – | 1917 | – | inactive | CG34300 | DRSC13977 |
| 11271 | – | 3442 | – | inactive | CG6974 | DRSC16160 |
| 2865 | 7771 | 1649 | 3841 | inactive | esg | DRSC03530 |
| 47848 | – | 9239 | – | inactive | CG5346 | DRSC15778 |
| 28176 | – | 17373 | – | inactive | CG3038 | DRSC18618 |
| 10592 | – | 3392 | – | inactive | CtsL2 | DRSC06978 |
| 20355 | – | 9184 | – | inactive | CG32832 | DRSC01562 |
| 4424 | 12617 | 1052 | 3987 | inactive | CR17567 (retired record) | DRSC02627 |
| 5.12e5 | 4.75e5 | 1.35e5 | 1.20e5 | inactive | CR17567 (retired record) | DRSC22537 |
| 3525 | – | 1829 | – | inactive | Dlg5 | DRSC02964 |
| 3168 | – | 434 | – | inactive | PIG-Q | DRSC19138 |
| 4041 | – | 1787 | – | inactive | CG33784 | DRSC12764 |
| 12400 | – | 6092 | – | inactive | CG7149 | DRSC03016 |
| 3688 | 5697 | 1194 | 1584 | inactive | CG11679 | DRSC19415 |
| 13674 | – | 2505 | – | inactive | Nup58 | DRSC16235 |
| 3904 | 7250 | 1733 | 2823 | inactive | Sar1 | DRSC17049 |
| 8.48e5 | 7.50e5 | 4.21e5 | 5.10e5 | inactive | Sar1 | DRSC22115 |
| 6826 | – | 2699 | – | inactive | CG6283 | DRSC16009 |
| 3416 | – | 907 | – | inactive | alpha-Man-Ia | DRSC17642 |
| 14422 | – | 7285 | – | inactive | alpha-Man-Ia | DRSC18162 |
| 14531 | – | 7356 | – | inactive | alpha-Man-Ia | DRSC18163 |
| 14716 | – | 7780 | – | inactive | alpha-Man-Ia | DRSC18735 |

7 neighbouring entries already listed, for reference:
| firefly reporter light, replicate 1 | firefly reporter light, replicate 2 | Renilla control light, replicate 1 | Renilla control light, replicate 2 | Outcome | gene | DRSC id |
| --- | --- | --- | --- | --- | --- | --- |
| 3688 | 5697 | 1194 | 1584 | inactive | CG11679 | DRSC19415 |
| 13674 | – | 2505 | – | inactive | Nup58 | DRSC16235 |
| 3904 | 7250 | 1733 | 2823 | inactive | Sar1 | DRSC17049 |
| 8.48e5 | 7.50e5 | 4.21e5 | 5.10e5 | inactive | Sar1 | DRSC22115 |
| 6826 | – | 2699 | – | inactive | CG6283 | DRSC16009 |
| 3416 | – | 907 | – | inactive | alpha-Man-Ia | DRSC17642 |
| 14422 | – | 7285 | – | inactive | alpha-Man-Ia | DRSC18162 |

Additional entries follow.
| firefly reporter light, replicate 1 | firefly reporter light, replicate 2 | Renilla control light, replicate 1 | Renilla control light, replicate 2 | Outcome | gene | DRSC id |
| --- | --- | --- | --- | --- | --- | --- |
| 17152 | – | 4099 | – | inactive | CG31467 | DRSC16048 |
| 2549 | 7354 | 737 | 2315 | inactive | Sema1a | DRSC03433 |
| 2172 | 8040 | 828 | 5011 | inactive | CG7164 | DRSC03018 |
| 5537 | – | 1752 | – | inactive | CG3632 | DRSC19137 |
| 1837 | 6188 | 758 | 1952 | inactive | CG3632 | DRSC19871 |
| 10953 | – | 4004 | – | inactive | Vps60 | DRSC10610 |
| 19563 | – | 16074 | – | inactive | CG42493 | DRSC05309 |
| 8777 | – | 2616 | – | inactive | Dph4 | DRSC12318 |
| 4502 | – | 1265 | – | inactive | eIF2gamma + Su(var)3-9 | DRSC13081 |
| 8204 | – | 2549 | – | inactive | eIF2gamma + Su(var)3-9 | DRSC16873 |
| 6186 | – | 2387 | – | inactive | CG32507 | DRSC20421 |
| 11584 | – | 10641 | – | inactive | vilya | DRSC18588 |
| 9426 | – | 3472 | – | inactive | CG1024 | DRSC12496 |
| 2840 | 6789 | 1069 | 1552 | inactive | atl | DRSC16089 |
| 13748 | – | 1543 | – | inactive | Dsp1 | DRSC20315 |
| 21090 | – | 12630 | – | inactive | CG31819 | DRSC01532 |
| 3302 | 6219 | 1926 | 2244 | inactive | CG11703 | DRSC14356 |
| 4698 | – | 2408 | – | inactive | scf | DRSC08735 |
